Eight compounds from PubChem BioAssay AID212 (DTP/NCI, 2004) can be followed below.

Molecules are shown by their SMILES. The list shows only some results of the screen, not a fair sample: its compounds were picked by chemical class. Other doses and runs of a compound may be missing. T/C: endpoint of the treated group in % of that of the vehicle group. Schedules are NCI's codes, read here as Q, the interval in days (D) or hours (H), X, the number of doses. Some T/C values are marked as having no survivor count here; that says nothing about deaths at the dose. Some doses were run more than once; their values stand side by side, smallest first. For survival time, the PubChem record calls one and a half times the control and up active, and a quarter to a half above the control has no call in these data; cut-offs in other NCI protocols can differ.

In this assay the test system is BDF1 mice, colon carcinoma 38 sc, T/C %. Description: NCI In Vivo Anticancer Drug Screen. Data for tumor model Colon Carcinoma 38 (subcutaneous) in B6D2F1 (BDF1) mice. How it is done: The antitumor activity of compounds was measured in mice bearing transplantable tumors. Survival or tumor size were measured and the results are expressed as the measurement made in the treated group (T) divided by the measurement made in the vehicle treated control group (C). The tumor model used in this assay is Colon Carcinoma 38 (subcutaneous) in B6D2F1 (BDF1) mice

Setting [1] is: T/C endpoint: median survival time, dose: 1.5 mg/kg/injection, schedule: Q07DX003 (sc), vehicle: saline + alcohol, higher T/C = longer survival.
Where [2] appears, read: T/C endpoint: median tumor weight (est.), dose: 0.25 mg/kg/injection, schedule: Q07DX003 (ip), vehicle: saline, evaluated on day 20, higher T/C = larger tumour.
Setting [3] is: T/C endpoint: median tumor weight (est.), dose: 0.5 mg/kg/injection, schedule: Q07DX003 (ip), vehicle: saline, evaluated on day 20, higher T/C = larger tumour.
[4] abbreviates: T/C endpoint: median tumor weight (est.), dose: 1.0 mg/kg/injection, schedule: Q07DX002 (ip), vehicle: saline, evaluated on day 20, higher T/C = larger tumour.
The mark [5] stands for this setting: T/C endpoint: median tumor weight (est.), dose: 1.0 mg/kg/injection, schedule: Q07DX003 (ip), vehicle: saline, evaluated on day 20, higher T/C = larger tumour.
[6] abbreviates: T/C endpoint: median tumor weight (est.), dose: 2.0 mg/kg/injection, schedule: Q07DX003 (ip), vehicle: saline, evaluated on day 20, higher T/C = larger tumour.
Where [7] appears, read: T/C endpoint: median tumor weight (est.), dose: 4.0 mg/kg/injection, schedule: Q07DX003 (ip), vehicle: saline, evaluated on day 20, higher T/C = larger tumour.
Where [8] appears, read: T/C endpoint: median tumor weight (est.), dose: 8.0 mg/kg/injection, schedule: Q07DX002 (ip), vehicle: saline, evaluated on day 20, higher T/C = larger tumour.
[9] abbreviates: T/C endpoint: median tumor weight (est.), dose: 8.0 mg/kg/injection, schedule: Q07DX003 (ip), vehicle: saline, evaluated on day 20, higher T/C = larger tumour.

`CC(=O)OCC12CCC(C)=CC1OC1C(O)C(OC(C)=O)C2(C)C12CO2` (stereo not given): the T/C is 111 % of control [survivor count not shown] under setting [1]; 144 [survivor count not shown] and 154 % of control [survivor count not shown] (T/C endpoint: median survival time, dose: 2.4 mg/kg/injection, schedule: Q01DX010 (ip), vehicle: saline + alcohol, higher T/C = longer survival); 132 % of control [survivor count not shown] (T/C endpoint: median survival time, dose: 3.0 mg/kg/injection, schedule: Q07DX003 (sc), vehicle: saline + alcohol, higher T/C = longer survival); 82 % of control [survivor count not shown] (T/C endpoint: median tumor weight (est.), dose: 0.25 mg/kg/injection, schedule: Q07DX002 (ip), vehicle: saline, evaluated on day 20, higher T/C = larger tumour); 86 % of control [survivor count not shown] under setting [2]; 63 [survivor count not shown], 70 [survivor count not shown], 96 % of control [survivor count not shown] under setting [3]. The T/C is, setting by setting: under setting [4], 126 % of control [survivor count not shown]; under setting [5], 65 [survivor count not shown], 66 [survivor count not shown], 68 [survivor count not shown], 77 [survivor count not shown], 106 % of control [survivor count not shown]; (T/C endpoint: median tumor weight (est.), dose: 2.0 mg/kg/injection, schedule: Q07DX003 (ip), vehicle: saline with Tween-80, evaluated on day 20, higher T/C = larger tumour) 34 % of control [survivor count not shown]; under setting [6], 23 [survivor count not shown], 32 [survivor count not shown], 43 [survivor count not shown], 62 [survivor count not shown], 102 % of control [survivor count not shown]; (T/C endpoint: median tumor weight (est.), dose: 4.0 mg/kg/injection, schedule: Q07DX003 (ip), vehicle: saline with Tween-80, evaluated on day 20, higher T/C = larger tumour) 11 % of control [survivor count not shown]; under setting [7], 20 [survivor count not shown], 24 [survivor count not shown], 29 [survivor count not shown], 65 % of control [survivor count not shown]. Moreover, the T/C is 68 % of control [survivor count not shown] (T/C endpoint: median tumor weight (est.), dose: 5.0 mg/kg/injection, schedule: Q07DX002 (ip), vehicle: saline, evaluated on day 20, higher T/C = larger tumour); 27 % of control [survivor count not shown] under setting [8]; 7 % of control [survivor count not shown] (T/C endpoint: median tumor weight (est.), dose: 8.0 mg/kg/injection, schedule: Q07DX003 (ip), vehicle: saline with Tween-80, evaluated on day 20, higher T/C = larger tumour); 3 [survivor count not shown], 19 [survivor count not shown], 61 % of control [survivor count not shown] under setting [9]; 52 % of control [survivor count not shown] (T/C endpoint: median tumor weight (est.), dose: 10.0 mg/kg/injection, schedule: Q07DX002 (ip), vehicle: saline, evaluated on day 20, higher T/C = larger tumour); 17 % of control [survivor count not shown] (T/C endpoint: median tumor weight (est.), dose: 20.0 mg/kg/injection, schedule: Q07DX002 (ip), vehicle: saline, evaluated on day 20, higher T/C = larger tumour).

Turning to `CC(=O)OCC12CCC(C)=CC1OC1C(O)C(O)C2(C)C12CO2` (stereo not given), the T/C is, setting by setting: under setting [5], 56 % of control [survivor count not shown]; under setting [6], 55 % of control [survivor count not shown].

As for `CC1=C[C@H]2O[C@@H]3C[C@H]4OC(=O)/C=C\C=C\C(C(C)O)OCC(O)C(C)CC(=O)OC[C@@]2(C[C@@H]1O)[C@]4(C)[C@@]31CO1` (stereo not given in full), the T/C (T/C endpoint: median survival time, dose: 0.5 mg/kg/injection, schedule: Q07DX003 (sc), vehicle: other, higher T/C = longer survival) is 107 % of control [survivor count not shown].

For `CC(=O)OC[C@]12C[C@H](OC(=O)CC(C)C)C(C)=C[C@H]1OC1[C@H](O)[C@@H](OC(C)=O)[C@@]2(C)[C@@]12CO2`, the T/C was 137 % of control [survivor count not shown] (T/C endpoint: median survival time, dose: 0.75 mg/kg/injection, schedule: Q07DX003 (sc), vehicle: saline + alcohol, higher T/C = longer survival) and 165 % of control [survivor count not shown] under setting [1].

For `CC1=C[C@H]2O[C@@H]3C[C@H]4OC(=O)/C=C\C=C\C(C(C)O)OCC[C@@H](C)[C@H](O)C(=O)OC[C@@]2(CC1)[C@]4(C)[C@]31CO1` (stereo not given in full), the T/C is 150 % of control [survivor count not shown] (T/C endpoint: median tumor weight (est.), dose: 0.05 mg/kg/injection, schedule: Q07DX002 (ip), vehicle: Klucel (hydroxypropylcellulose) (HPC), evaluated on day 20, higher T/C = larger tumour) and 95 % of control [survivor count not shown] (T/C endpoint: median tumor weight (est.), dose: 0.09 mg/kg/injection, schedule: Q07DX002 (ip), vehicle: Klucel (hydroxypropylcellulose) (HPC), evaluated on day 20, higher T/C = larger tumour).

As for `CC1=C[C@H]2O[C@@H]3[C@H](O)[C@@H](O)[C@](C)([C@@]2(CO)CC1)[C@@]31CO1`, the T/C by setting is: (T/C endpoint: median tumor weight (est.), dose: 0.12 mg/kg/injection, schedule: Q07DX003 (ip), vehicle: saline, evaluated on day 20, higher T/C = larger tumour) 64 % of control [survivor count not shown]; under setting [2], 102 % of control [survivor count not shown]; under setting [3], 37 [survivor count not shown] and 60 % of control [survivor count not shown]; under setting [4], 63 [survivor count not shown] and 106 % of control [survivor count not shown]; under setting [5], 65 [survivor count not shown], 73 [survivor count not shown], 107 % of control [survivor count not shown]; (T/C endpoint: median tumor weight (est.), dose: 2.0 mg/kg/injection, schedule: Q07DX002 (ip), vehicle: saline, evaluated on day 20, higher T/C = larger tumour) 72 [survivor count not shown] and 105 % of control [survivor count not shown]. Moreover, the T/C under setting [6] was 12 [survivor count not shown], 62 [survivor count not shown], 88 % of control [survivor count not shown]; the T/C (T/C endpoint: median tumor weight (est.), dose: 4.0 mg/kg/injection, schedule: Q07DX002 (ip), vehicle: saline, evaluated on day 20, higher T/C = larger tumour) was 97 % of control [survivor count not shown]; the T/C under setting [7] is 46 [survivor count not shown], 54 [survivor count not shown], 95 % of control [survivor count not shown]; the T/C under setting [8] was 52 % of control [survivor count not shown]; the T/C under setting [9] is 47 [survivor count not shown], 57 [survivor count not shown], 81 % of control [survivor count not shown]; the T/C (T/C endpoint: median tumor weight (est.), dose: 16.0 mg/kg/injection, schedule: Q07DX002 (ip), vehicle: saline, evaluated on day 20, higher T/C = larger tumour) is 36 % of control [survivor count not shown]. Further, under “T/C endpoint: median tumor weight (est.), dose: 16.0 mg/kg/injection, schedule: Q07DX003 (ip), vehicle: saline, evaluated on day 20, higher T/C = larger tumour”, the T/C is 17 % of control [survivor count not shown].

As for `C[C@@H](O)[C@H]1/C=C/C=C\C(=O)O[C@@H]2C[C@H]3O[C@@H]4[C@@H]5OC5(C)CCC4(COC(=O)[C@H]4O[C@]4(C)[C@@H](O)CO1)[C@]2(C)[C@]31CO1` (stereo not given in full), the T/C reads like this: (T/C endpoint: median tumor weight (est.), dose: 2.5 mg/kg/injection, schedule: Q07DX002 (ip), vehicle: saline + alcohol, evaluated on day 20, higher T/C = larger tumour) 102 % of control [survivor count not shown]; (T/C endpoint: median tumor weight (est.), dose: 10.0 mg/kg/injection, schedule: Q07DX002 (ip), vehicle: saline + alcohol, evaluated on day 20, higher T/C = larger tumour) 99 % of control [survivor count not shown]; (T/C endpoint: median tumor weight (est.), dose: 40.0 mg/kg/injection, schedule: Q07DX002 (ip), vehicle: saline + alcohol, evaluated on day 20, higher T/C = larger tumour) 105 % of control [survivor count not shown].

Consider `C=C(C)C(=O)OCC12CCC(C)=CC1OC1C(=O)C(OC(=O)C(=C)C)C2(C)C12CO2` (stereo not given), for which the T/C is 53 % of control [survivor count not shown] (T/C endpoint: median tumor weight (est.), dose: 0.5 mg/kg/injection, schedule: Q07DX002 (ip), vehicle: distilled water + Tween-80, evaluated on day 20, higher T/C = larger tumour); 23 % of control [survivor count not shown] (T/C endpoint: median tumor weight (est.), dose: 1.0 mg/kg/injection, schedule: Q07DX002 (ip), vehicle: distilled water + Tween-80, evaluated on day 20, higher T/C = larger tumour); 33 % of control [survivor count not shown] (T/C endpoint: median tumor weight (est.), dose: 2.0 mg/kg/injection, schedule: Q07DX002 (ip), vehicle: distilled water + Tween-80, evaluated on day 20, higher T/C = larger tumour); 65 % of control [survivor count not shown] (T/C endpoint: median tumor weight (est.), dose: 4.0 mg/kg/injection, schedule: Q07DX002 (ip), vehicle: distilled water + Tween-80, evaluated on day 20, higher T/C = larger tumour).
